We go through 29 compounds from PubChem BioAssay.

Chains of the proteins cited; added tags and fusions are not shown.
UniProt P42858, whole entry, looked up: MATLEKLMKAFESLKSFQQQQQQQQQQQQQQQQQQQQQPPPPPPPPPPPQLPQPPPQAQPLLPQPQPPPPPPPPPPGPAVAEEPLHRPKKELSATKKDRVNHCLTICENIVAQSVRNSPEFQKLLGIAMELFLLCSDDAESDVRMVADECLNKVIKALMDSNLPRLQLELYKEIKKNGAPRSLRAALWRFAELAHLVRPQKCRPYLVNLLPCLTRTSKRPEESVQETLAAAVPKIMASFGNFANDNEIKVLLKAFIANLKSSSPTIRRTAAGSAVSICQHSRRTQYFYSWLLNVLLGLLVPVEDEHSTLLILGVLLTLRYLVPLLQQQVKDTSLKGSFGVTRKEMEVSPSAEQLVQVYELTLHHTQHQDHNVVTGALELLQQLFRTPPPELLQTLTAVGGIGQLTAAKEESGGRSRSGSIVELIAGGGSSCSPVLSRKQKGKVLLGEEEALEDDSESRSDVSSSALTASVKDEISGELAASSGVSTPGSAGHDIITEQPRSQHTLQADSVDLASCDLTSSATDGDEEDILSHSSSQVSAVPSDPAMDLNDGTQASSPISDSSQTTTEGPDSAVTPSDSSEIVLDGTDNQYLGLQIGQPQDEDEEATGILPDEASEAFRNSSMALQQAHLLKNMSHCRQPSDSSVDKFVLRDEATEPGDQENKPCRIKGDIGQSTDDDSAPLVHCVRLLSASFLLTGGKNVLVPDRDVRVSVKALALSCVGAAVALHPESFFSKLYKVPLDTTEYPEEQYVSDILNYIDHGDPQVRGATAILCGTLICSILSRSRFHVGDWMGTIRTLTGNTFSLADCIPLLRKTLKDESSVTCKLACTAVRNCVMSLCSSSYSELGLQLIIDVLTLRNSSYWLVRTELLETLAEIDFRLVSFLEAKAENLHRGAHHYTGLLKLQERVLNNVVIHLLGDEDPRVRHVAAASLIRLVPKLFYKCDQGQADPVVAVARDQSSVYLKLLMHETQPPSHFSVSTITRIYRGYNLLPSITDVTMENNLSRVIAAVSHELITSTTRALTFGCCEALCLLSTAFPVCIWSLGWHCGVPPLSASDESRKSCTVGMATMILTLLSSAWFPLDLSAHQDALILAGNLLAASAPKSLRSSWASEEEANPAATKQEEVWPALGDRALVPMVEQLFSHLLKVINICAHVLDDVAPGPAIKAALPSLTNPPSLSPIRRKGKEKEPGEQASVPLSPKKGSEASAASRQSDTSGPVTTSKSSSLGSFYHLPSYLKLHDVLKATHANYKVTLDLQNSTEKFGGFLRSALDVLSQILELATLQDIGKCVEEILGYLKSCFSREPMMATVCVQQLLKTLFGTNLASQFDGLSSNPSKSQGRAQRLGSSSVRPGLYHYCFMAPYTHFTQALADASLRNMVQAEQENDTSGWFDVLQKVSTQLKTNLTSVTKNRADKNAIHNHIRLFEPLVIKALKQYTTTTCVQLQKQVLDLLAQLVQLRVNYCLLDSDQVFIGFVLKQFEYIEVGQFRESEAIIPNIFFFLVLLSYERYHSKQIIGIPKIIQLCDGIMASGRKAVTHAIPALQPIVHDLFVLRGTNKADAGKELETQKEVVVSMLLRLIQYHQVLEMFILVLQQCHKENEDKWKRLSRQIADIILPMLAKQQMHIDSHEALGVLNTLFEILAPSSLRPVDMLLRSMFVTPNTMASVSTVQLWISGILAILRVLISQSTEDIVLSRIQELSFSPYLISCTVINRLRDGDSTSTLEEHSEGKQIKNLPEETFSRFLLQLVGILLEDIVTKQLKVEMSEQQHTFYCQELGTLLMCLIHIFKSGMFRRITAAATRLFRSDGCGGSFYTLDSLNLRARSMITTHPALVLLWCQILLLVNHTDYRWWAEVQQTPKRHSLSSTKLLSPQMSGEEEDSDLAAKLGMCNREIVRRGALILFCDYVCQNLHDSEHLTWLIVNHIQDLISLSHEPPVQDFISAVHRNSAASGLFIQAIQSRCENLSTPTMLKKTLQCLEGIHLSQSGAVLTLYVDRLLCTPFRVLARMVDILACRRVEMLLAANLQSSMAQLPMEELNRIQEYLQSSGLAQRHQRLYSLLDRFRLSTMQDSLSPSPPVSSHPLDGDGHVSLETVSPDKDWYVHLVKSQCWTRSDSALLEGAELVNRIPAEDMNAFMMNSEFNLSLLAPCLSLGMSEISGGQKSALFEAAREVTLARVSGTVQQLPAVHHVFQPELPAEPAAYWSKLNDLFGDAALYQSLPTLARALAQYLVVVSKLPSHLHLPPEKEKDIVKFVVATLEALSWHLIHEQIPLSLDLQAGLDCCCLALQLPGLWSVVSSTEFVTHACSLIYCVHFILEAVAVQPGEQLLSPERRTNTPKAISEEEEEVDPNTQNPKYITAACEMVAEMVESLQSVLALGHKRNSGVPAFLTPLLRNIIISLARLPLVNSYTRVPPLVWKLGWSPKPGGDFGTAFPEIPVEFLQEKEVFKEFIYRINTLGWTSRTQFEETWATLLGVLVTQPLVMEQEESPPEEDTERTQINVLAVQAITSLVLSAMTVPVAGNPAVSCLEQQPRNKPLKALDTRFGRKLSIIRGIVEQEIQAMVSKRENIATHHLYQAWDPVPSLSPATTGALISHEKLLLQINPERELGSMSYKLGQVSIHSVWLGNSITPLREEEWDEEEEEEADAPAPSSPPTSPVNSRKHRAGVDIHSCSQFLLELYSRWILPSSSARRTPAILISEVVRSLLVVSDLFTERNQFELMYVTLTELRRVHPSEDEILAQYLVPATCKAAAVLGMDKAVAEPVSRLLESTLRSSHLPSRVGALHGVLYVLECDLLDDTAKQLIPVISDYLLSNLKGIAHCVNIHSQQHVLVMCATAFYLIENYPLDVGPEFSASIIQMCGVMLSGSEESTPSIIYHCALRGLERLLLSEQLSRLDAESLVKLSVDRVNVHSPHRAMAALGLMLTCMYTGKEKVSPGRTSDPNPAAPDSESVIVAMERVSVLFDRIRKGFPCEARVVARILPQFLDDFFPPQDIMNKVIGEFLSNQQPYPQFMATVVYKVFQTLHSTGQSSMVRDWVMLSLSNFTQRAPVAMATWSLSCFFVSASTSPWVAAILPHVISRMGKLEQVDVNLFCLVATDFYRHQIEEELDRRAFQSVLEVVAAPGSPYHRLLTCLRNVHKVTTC

Experiment [1] concerns the target Huntingtin (Homo sapiens) (UniProt P42858). Briefly: inhibitors of mutant Htt aggregation in vitro, dose response, QA1 (AID 1584). Particulars: in vitro mutant huntingtin aggregation assay; confirmation test; at 10 µM; stronger effect = lower value.
A further experiment is described as follows: PubChem AID 1586. The following applies: yeast two-hybrid polyglutamine protein interaction, reporter readout; measured here: averaged growth delta OD.
Experiment [2] can be described thus: enhancers of SMN2 over SMN1 splicing, cell-based, SMN2/SMN1 luciferase reporters (AID 1598). Particulars: SMN2 vs SMN1 luciferase splicing reporter cells, at 10 µM; SMN1 luciferase ratio: measured here: SMN1 luciferase reporter average; SMN2 luciferase ratio: measured here: SMN2 luciferase reporter average, stronger effect = higher value. Background: In a reporter assay the amount or activity of a reporter protein is the signal.

The nature of experiment [3]: protection against mutant huntingtin cytotoxicity, PC12 cells, LDH release (AID 1610). The following applies: PC12 mutant huntingtin toxicity, final LDH at 4 uM, stronger effect = lower value. In general terms: LDH in the medium is a marker of cell lysis.

The other results are listed elsewhere or left out. Shown are side measurements of this screen, not its main read-out; they come without a call. For some of these results: Most of these compounds were active or inconclusive in the main read-out, so they are no random draw.

As for `C[C@H](CS)C(=O)N1CCC[C@H]1C(=O)O`, the aggregation ratio in experiment [1] stood at 1.07. In “PubChem AID 1586”, the signal change (36 h minus 0 h) amounted to 0.168. Moreover, in experiment [2], the SMN1 luciferase ratio came out at 0.87 and the SMN2 luciferase ratio is 0.93. The compound further showed a normalised LDH release in experiment [3] of 0.889.
For `OCCS`, in that order: 1.01, 0.222, 0.91, 0.94 and 1.02.
On to `COc1cccc(OC)c1C(=O)N[C@@H]1C(=O)N2[C@@H]1SC(C)(C)[C@@H]2C(=O)O`, for which the aggregation ratio in experiment [1] came out at 1.06. This compound showed a signal change (36 h minus 0 h) in “PubChem AID 1586” of 0.18. For the same compound, in experiment [2], the SMN1 luciferase ratio was 0.91 and the SMN2 luciferase ratio stood at 0.91. For the same compound, in experiment [3], the normalised LDH release is 0.625.
For `CCCCC1(COC(=O)CCC(=O)O)C(=O)N(c2ccccc2)N(c2ccccc2)C1=O`, the aggregation ratio in experiment [1] is 1.1. Moreover, the signal change (36 h minus 0 h) in the experiment “PubChem AID 1586” came out at 0.177. Moreover, in experiment [2], the SMN1 luciferase ratio is 0.82 and the SMN2 luciferase ratio is 0.85. This compound also had a normalised LDH release in experiment [3] of 0.847.
For `CC1=C(/C=C/C(C)=C/C=C/C(C)=C/C(=O)O)C(C)(C)CCC1`, in that order: 0.972, 0.158, 0.8, 0.87 and 0.658.
For `O=C1c2ccc(O)c(O)c2C(=O)c2c(O)ccc(O)c21`, in that order: 0.693, 0.0257, 0.57, 0.9 and 0.765.
The like results for `Oc1c(I)cc(I)c2cccnc12` were, in that order, 1.03, -0.0164, 0.88, 0.75 and 1.17.
Consider `CCC(c1ccc(O)cc1)C(CC)c1ccc(O)cc1` (configuration not stated), for which the aggregation ratio in experiment [1] amounted to 0.998. The same compound returned a signal change (36 h minus 0 h) in the experiment “PubChem AID 1586” of 0.155. Besides, in experiment [2], the SMN1 luciferase ratio was found to be 0.98 and the SMN2 luciferase ratio amounted to 0.79. This compound gave a normalised LDH release in experiment [3] of 0.439.
For `N[C@@H](Cc1ccc(O)c(O)c1)C(=O)O`, in that order: 0.999, 0.207, 0.8, 0.86 and 0.648.
In the case of `CN1CCc2cccc3c2C1Cc1ccc(O)c(O)c1-3` (configuration not stated), the aggregation ratio in experiment [1] amounted to 1.05. Besides, the signal change (36 h minus 0 h) in the experiment “PubChem AID 1586” stood at 0.176. Also, in experiment [2], the SMN1 luciferase ratio stood at 0.93 and the SMN2 luciferase ratio came to 0.92.
For the compound `CCC1(c2ccccc2)NC(=O)N(C)C1=O` (configuration not stated), the aggregation ratio in experiment [1] was found to be 1.07. In the experiment “PubChem AID 1586”, this compound showed a signal change (36 h minus 0 h) of 0.105. In experiment [2], the SMN1 luciferase ratio stood at 0.94 and the SMN2 luciferase ratio amounted to 0.96. This compound yielded a normalised LDH release in experiment [3] of 0.971.
In the case of `CC(=O)OC/C=C(C)/C=C/C=C(C)/C=C/C1=C(C)CCCC1(C)C`, the aggregation ratio in experiment [1] amounted to 0.985. Also, the signal change (36 h minus 0 h) in the experiment “PubChem AID 1586” was determined as 0.0583. Besides, in experiment [2], the SMN1 luciferase ratio stood at 0.93 and the SMN2 luciferase ratio is 0.81. In experiment [3], this compound yielded a normalised LDH release of 0.283.
The like results for `CN(C)c1ccc(O)c2c1C[C@H]1C[C@H]3[C@H](N(C)C)C(=O)C(C(N)=O)=C(O)[C@@]3(O)C(=O)C1=C2O` were, in that order, 1.04, 0.214, 0.86, 0.77 and 0.112.
The like results for `OCc1ccccc1O[C@@H]1O[C@H](CO)[C@@H](O)[C@H](O)[C@H]1O` were, in that order, 1.01, 0.0502, 0.9, 0.87 and 1.08.
The like results for `CC(=O)O[C@@H]1CC2C(C)(C)C(=O)C=C[C@]2(C)C2CC[C@@]3(C)[C@H](c4ccoc4)OC(=O)[C@H]4O[C@]43[C@@]21C` (some centres not stated) were, in that order, 0.994, 0.342, 1.06, 1.04 and 0.856.
As to `NCC1CCC(C(=O)O)CC1` (configuration not stated), in experiment [1], the aggregation ratio came to 0.984. For the same compound, the signal change (36 h minus 0 h) in “PubChem AID 1586” stood at 0.0291. In experiment [2], the SMN1 luciferase ratio is 0.89 and the SMN2 luciferase ratio worked out at 0.84. Moreover, the normalised LDH release in experiment [3] came to 1.06.
For `CCCN1C[C@H](CSC)C[C@@H]2c3cccc4[nH]cc(c34)C[C@H]21`, in that order: 0.97, 0.188, 0.93, 0.97 and 0.543.
The like results for `CC(=O)N[C@@H](CS)C(=O)O` were, in that order, 1.02, 0.193, 0.84, 0.88 and 0.875.
The like results for `CC[C@@H](C(=O)C(C)[C@@H](O)[C@H](C)CCc1ccc(C)c(O)c1C(=O)O)C1OC(CC)(C2CC[C@](O)(CC)[C@H](C)O2)C[C@@H]1C` (some centres not stated) were, in that order, 0.969, 0.162, 0.51, 0.53 and 1.53.
For `CN1CCN2c3ccccc3Cc3ccccc3C2C1` (configuration not stated), the aggregation ratio in experiment [1] came to 1.03. For the same compound, the signal change (36 h minus 0 h) in the experiment “PubChem AID 1586” stood at 0.408. In experiment [2], the SMN1 luciferase ratio is 0.86 and the SMN2 luciferase ratio came to 0.78. The same compound gave a normalised LDH release in experiment [3] of 0.921.
`CC1=C(/C=C/C(C)=C/C=C/C(C)=C/C=C/C=C(C)/C=C/C=C(C)/C=C/C2=C(C)CCCC2(C)C)C(C)(C)CCC1`: the aggregation ratio in experiment [1] was 0.737. The compound also registered a signal change (36 h minus 0 h) in the experiment “PubChem AID 1586” of 0.0486. Also, in experiment [2], the SMN1 luciferase ratio turned out to be 0.89 and the SMN2 luciferase ratio was 0.88. This compound also registered a normalised LDH release in experiment [3] of 0.826.
For `Oc1c(Cl)cc(Cl)c(Cl)c1Cc1c(O)c(Cl)cc(Cl)c1Cl`, in experiment [1], the aggregation ratio was 0.98. In “PubChem AID 1586”, this compound came in with a signal change (36 h minus 0 h) of 0.00345. Further, in experiment [2], the SMN1 luciferase ratio is 0.46 and the SMN2 luciferase ratio was 0.44.
As for `CCCCN(CCCC)CCCOC(=O)c1ccc(N)cc1`, in experiment [1], the aggregation ratio was found to be 1.05. In “PubChem AID 1586”, this compound showed a signal change (36 h minus 0 h) of 0.172. Besides, in experiment [2], the SMN1 luciferase ratio was determined as 0.83 and the SMN2 luciferase ratio was 0.86. In experiment [3], this compound gave a normalised LDH release of 0.749.
The like results for `Cc1cc(N)c2ccccc2[n+]1CCCCCCCCCC[n+]1c(C)cc(N)c2ccccc21` were, in that order, 1.03, 0.0966, 0.35, 0.57 and 0.996.
Take `Cc1cc2cc3c(C)cc(=O)oc3c(C)c2o1`: the aggregation ratio in experiment [1] is 1.04. The same compound displayed a signal change (36 h minus 0 h) in the experiment “PubChem AID 1586” of 0.208. In experiment [2], the SMN1 luciferase ratio is 0.93 and the SMN2 luciferase ratio was 1.07. Also, the normalised LDH release in experiment [3] was found to be 0.458.
For `CC(Cc1ccc(O)c(O)c1)C(C)Cc1ccc(O)c(O)c1` (configuration not stated), the aggregation ratio in experiment [1] was 0.981. In addition, the signal change (36 h minus 0 h) in “PubChem AID 1586” amounted to 0.235. Moreover, in experiment [2], the SMN1 luciferase ratio came out at 0.98 and the SMN2 luciferase ratio is 0.96.
In the case of `CC(C)=CCc1c2c(c3occ(-c4ccc(O)c(O)c4)c(=O)c3c1O)C=CC(C)(C)O2`, the aggregation ratio in experiment [1] was 0.995. Besides, the signal change (36 h minus 0 h) in “PubChem AID 1586” was 0.366. Besides, in experiment [2], the SMN1 luciferase ratio amounted to 0.94 and the SMN2 luciferase ratio turned out to be 0.99. Besides, the normalised LDH release in experiment [3] is 1.12.
In the case of `NC[C@H](O)c1ccc(O)c(O)c1`, the aggregation ratio in experiment [1] amounted to 0.874. Further, the signal change (36 h minus 0 h) in the experiment “PubChem AID 1586” came out at 0.0376. For the same compound, in experiment [2], the SMN1 luciferase ratio amounted to 0.96 and the SMN2 luciferase ratio turned out to be 0.93. Further, the normalised LDH release in experiment [3] was determined as 0.426.
For `O=c1c(O)cc2c(O)oc3c(=O)c(O)cc4c3c2c1CC=4O`, in that order: 0.836, 0.0442, 0.91, 0.85 and 1.04.
